The record followed here is patent US20190023771A1.

Amino acid sequences for entries named in this document (tags omitted). Residues count along the entry.
UniProt P60880, residues 1-180: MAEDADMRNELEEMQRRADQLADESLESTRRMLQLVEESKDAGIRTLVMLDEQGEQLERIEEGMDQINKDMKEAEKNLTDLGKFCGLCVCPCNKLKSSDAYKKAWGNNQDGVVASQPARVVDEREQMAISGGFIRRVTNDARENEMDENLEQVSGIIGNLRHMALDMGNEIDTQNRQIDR

The assay deals with BoNT/E-cleaved SNAP-25 (UniProt P60880). Nature of the assay: ELISA and Western blots.

Results are given in words; binding and its absence hold for the method and conditions named. Some binding calls cover weakened binding; strength is not graded here.

B1: mouse monoclonal antibody produced by hybridoma pCNEI 32-7-1, 3614-000 (antibody, V domains shown)
VH: EVQLVESGGGLVQPKGSLKLSCAASGYTFNTYAVNWVRQAPGKGLEWVARIRSKSYNYVTYYADSVKDRFTISRDDSQSMLYLQMNNLKTEDTAMYYCVKGNGNYVSFAYWGQGTLVTVSA
VL: QLVLTQSSSASFSLGASAKLTCTLSSQHNTYTIEWYQQQPLKPPKYVMELKKDGSHSTGDGIPDRFSGSSSGADRYLSISNIQPEDEAIYICGVGDTIKEQFVYVFGGGTKVTVL
With B1, the binding entry is given as “binds”.
